Test results published in the M2OR odorant receptor database.
Numbering of substitutions follows the chain as printed. The list shows a part of the results, in another mix than the full data. Calls are pooled over several reports, among them a noisy single-well screen. Some of the results follow.

Chains of the proteins cited; added tags and fusions are not shown. A line that says so, or that is headed by a name, gives the form on record, which may keep a tag or linker.
O4A15, as listed by the source: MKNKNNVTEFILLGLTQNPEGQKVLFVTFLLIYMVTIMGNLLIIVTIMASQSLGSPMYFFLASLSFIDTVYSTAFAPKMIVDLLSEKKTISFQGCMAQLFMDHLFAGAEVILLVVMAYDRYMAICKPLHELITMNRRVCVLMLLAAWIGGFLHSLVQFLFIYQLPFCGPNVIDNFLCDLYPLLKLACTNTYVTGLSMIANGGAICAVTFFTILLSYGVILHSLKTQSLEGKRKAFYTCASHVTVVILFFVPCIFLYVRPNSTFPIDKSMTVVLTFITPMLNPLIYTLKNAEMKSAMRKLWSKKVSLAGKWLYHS
O4F17, as listed by the source: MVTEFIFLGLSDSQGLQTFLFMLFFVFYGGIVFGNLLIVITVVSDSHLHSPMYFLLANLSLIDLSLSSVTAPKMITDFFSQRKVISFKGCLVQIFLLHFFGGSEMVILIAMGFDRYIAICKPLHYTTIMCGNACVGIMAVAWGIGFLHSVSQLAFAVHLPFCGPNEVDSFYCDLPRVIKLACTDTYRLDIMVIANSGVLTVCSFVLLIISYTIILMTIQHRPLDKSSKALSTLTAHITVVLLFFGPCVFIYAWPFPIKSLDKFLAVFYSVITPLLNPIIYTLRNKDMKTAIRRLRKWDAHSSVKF
O4C46, as listed by the source: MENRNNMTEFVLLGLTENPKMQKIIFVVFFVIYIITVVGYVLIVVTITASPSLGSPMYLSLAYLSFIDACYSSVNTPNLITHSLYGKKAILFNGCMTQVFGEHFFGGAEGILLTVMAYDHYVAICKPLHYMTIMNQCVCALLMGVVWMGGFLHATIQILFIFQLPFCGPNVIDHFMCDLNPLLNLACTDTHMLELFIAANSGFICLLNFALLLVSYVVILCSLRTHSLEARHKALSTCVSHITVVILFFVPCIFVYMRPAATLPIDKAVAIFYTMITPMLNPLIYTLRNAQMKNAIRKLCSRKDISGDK

Assays:
Settings in all cases: stereoisomer not certain
[1] = test system: T1, O2T11
T1 sequence (whole entry): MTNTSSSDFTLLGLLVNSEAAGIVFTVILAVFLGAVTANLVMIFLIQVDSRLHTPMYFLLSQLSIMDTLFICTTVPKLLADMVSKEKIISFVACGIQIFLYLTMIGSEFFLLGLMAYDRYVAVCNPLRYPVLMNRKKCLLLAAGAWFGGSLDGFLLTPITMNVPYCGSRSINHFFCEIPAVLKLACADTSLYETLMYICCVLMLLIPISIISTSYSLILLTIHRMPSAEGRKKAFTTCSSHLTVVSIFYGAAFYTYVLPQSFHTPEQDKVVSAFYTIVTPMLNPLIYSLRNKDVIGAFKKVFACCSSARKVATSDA
Method in brief: (§1)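 Each receptor–molecule pair is labelled responsive or non-responsive (inactive) according to whether the original authors judged the measured signal statistically different from baseline. The data were taken from the main text and supplementary material of published papers and checked for typos and inconsistencies. Assay methods differed by source, with transient luciferase assays in mammalian cell lines being common.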

[2] = test system: T2, O2T29
T2 sequence (whole entry): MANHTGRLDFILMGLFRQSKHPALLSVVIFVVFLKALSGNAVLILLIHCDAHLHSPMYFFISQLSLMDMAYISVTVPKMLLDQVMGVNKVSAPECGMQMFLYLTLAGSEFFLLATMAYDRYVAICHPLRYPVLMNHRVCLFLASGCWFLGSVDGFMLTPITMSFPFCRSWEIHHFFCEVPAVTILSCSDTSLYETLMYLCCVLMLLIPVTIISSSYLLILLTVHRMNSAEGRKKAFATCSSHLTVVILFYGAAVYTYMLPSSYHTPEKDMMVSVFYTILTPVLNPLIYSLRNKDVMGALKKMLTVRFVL
Method in brief: as §1

[3] = test system: T3, O2T29; remark: listed apart in the source
T3 sequence (whole entry): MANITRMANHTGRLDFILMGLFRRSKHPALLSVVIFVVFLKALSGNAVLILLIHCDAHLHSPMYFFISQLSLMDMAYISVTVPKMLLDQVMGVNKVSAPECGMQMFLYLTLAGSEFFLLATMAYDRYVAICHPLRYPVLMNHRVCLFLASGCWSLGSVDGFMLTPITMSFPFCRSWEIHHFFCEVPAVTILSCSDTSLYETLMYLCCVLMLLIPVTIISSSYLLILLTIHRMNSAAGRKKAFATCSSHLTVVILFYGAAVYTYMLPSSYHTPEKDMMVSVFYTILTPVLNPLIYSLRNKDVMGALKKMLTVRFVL
Method in brief: as §1

[4] = test system: T4, O2T33
T4 sequence (whole entry): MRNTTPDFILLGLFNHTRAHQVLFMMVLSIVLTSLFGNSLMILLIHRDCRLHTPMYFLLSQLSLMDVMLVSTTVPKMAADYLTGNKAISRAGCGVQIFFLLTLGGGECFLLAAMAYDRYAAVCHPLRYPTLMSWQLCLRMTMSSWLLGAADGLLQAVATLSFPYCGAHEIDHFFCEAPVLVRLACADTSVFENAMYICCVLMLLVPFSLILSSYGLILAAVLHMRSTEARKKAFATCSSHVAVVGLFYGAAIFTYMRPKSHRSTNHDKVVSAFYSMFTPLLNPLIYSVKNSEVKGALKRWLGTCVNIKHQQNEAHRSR
Method in brief: as §1

[5] = test system: T5, O2T34
T5 sequence (whole entry): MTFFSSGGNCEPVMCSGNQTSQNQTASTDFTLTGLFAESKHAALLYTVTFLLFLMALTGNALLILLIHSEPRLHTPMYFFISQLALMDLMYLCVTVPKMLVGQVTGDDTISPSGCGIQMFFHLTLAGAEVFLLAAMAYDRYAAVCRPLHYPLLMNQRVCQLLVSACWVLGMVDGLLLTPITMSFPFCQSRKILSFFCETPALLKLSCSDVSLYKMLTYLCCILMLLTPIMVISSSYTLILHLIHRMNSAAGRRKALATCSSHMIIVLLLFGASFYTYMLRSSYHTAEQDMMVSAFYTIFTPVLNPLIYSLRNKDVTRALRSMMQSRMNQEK
Method in brief: as §1

[6] = test system: T6, O2T35
T6 sequence (whole entry): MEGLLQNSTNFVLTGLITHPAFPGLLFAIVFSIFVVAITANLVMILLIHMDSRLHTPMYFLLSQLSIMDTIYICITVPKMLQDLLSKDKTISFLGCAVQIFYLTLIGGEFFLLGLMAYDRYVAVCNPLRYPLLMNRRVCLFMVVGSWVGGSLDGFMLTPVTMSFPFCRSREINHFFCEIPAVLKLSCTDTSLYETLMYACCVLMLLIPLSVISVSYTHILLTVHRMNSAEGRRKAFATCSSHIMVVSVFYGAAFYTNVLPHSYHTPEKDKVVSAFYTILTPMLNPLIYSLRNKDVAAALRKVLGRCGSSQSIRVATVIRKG
Method in brief: as §1

[7] = test system: O4A15
Method in brief: as §1

[8] = test system: T7, O4A47
T7 sequence (whole entry): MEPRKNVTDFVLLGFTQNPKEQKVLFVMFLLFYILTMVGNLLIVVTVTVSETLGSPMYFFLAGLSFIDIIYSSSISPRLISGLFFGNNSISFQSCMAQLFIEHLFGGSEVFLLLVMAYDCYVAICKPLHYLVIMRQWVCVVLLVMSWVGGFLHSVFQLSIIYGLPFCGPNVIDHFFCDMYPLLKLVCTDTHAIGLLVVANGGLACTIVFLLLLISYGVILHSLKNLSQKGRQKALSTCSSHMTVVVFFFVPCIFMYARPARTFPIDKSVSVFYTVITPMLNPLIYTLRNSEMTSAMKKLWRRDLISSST
Method in brief: as §1

[9] = test system: O4C46
Method in brief: as §1

[10] = test system: T8, O4F17
T8 sequence (whole entry): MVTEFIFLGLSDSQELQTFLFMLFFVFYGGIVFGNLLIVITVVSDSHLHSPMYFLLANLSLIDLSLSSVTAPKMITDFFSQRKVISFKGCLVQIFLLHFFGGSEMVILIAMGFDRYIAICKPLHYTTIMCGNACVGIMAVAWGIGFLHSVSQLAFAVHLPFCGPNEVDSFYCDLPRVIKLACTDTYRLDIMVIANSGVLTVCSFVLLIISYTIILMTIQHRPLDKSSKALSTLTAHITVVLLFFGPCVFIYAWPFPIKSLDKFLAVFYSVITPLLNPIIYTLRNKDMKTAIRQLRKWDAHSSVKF
Method in brief: as §1

[11] = test system: T9, O4F17; remark: listed apart in the source
T9 sequence (whole entry): T8 sequence (whole entry) with E15G, Q293R
Method in brief: as §1

[12] = test system: T10, O4F21
T10 sequence (whole entry): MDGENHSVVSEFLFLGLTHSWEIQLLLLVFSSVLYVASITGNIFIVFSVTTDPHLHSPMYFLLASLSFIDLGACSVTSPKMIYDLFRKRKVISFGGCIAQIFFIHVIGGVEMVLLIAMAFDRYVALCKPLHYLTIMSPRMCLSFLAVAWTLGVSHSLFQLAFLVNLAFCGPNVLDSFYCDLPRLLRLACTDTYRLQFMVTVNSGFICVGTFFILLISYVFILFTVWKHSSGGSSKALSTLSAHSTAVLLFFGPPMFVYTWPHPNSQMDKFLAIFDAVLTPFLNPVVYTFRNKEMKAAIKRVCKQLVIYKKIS
Method in brief: as §1

[13] = test system: T11, O51A4
T11 sequence (whole entry): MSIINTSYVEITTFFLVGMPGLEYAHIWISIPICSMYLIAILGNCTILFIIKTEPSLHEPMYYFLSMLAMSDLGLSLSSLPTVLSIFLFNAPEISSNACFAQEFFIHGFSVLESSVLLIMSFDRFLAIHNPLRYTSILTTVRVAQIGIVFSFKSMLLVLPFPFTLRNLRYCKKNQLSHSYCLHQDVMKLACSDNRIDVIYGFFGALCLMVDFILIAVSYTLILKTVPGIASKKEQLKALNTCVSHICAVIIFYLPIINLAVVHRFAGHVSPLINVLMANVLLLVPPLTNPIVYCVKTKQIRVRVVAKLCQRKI
Method in brief: as §1

[14] = test system: T12, O51B4
T12 sequence (whole entry): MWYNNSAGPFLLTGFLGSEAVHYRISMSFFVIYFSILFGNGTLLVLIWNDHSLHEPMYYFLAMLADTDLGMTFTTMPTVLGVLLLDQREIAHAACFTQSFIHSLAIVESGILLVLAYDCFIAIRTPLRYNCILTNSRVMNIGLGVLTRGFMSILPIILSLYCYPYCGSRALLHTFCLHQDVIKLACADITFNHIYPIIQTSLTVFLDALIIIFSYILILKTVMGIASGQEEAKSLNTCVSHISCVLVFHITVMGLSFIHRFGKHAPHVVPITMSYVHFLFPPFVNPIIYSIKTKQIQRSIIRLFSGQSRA
Method in brief: as §1

[15] = test system: T13, O51B5
T13 sequence (whole entry): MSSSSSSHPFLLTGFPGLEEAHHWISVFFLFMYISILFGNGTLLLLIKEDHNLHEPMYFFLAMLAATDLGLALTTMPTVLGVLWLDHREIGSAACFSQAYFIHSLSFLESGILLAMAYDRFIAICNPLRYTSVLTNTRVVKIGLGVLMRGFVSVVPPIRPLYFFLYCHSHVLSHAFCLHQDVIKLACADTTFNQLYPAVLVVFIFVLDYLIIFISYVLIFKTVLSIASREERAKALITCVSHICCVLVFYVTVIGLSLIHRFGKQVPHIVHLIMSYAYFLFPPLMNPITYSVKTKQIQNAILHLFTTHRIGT
Method in brief: as §1

[16] = test system: T14, O51B6
T14 sequence (whole entry): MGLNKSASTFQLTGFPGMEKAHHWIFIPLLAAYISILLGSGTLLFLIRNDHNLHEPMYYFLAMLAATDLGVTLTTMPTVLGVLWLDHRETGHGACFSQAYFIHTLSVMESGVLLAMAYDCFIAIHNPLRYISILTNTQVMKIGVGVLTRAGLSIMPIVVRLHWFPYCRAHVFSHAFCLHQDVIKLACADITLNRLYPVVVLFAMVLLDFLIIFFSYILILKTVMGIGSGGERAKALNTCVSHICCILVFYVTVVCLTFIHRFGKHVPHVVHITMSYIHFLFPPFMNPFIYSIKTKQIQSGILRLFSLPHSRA
Method in brief: as §1

[17] = test system: T15, O51E1
T15 sequence (whole entry): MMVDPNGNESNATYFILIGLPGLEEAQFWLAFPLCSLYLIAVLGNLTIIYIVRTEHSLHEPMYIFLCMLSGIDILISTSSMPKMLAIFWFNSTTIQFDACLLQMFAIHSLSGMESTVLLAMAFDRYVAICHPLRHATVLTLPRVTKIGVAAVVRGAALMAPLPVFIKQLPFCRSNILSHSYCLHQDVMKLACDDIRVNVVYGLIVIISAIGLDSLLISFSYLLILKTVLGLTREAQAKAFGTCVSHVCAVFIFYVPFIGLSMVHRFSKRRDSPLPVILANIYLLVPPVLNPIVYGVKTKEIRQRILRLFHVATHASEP
Method in brief: as §1

[18] = test system: T16, O51F1
T16 sequence (whole entry): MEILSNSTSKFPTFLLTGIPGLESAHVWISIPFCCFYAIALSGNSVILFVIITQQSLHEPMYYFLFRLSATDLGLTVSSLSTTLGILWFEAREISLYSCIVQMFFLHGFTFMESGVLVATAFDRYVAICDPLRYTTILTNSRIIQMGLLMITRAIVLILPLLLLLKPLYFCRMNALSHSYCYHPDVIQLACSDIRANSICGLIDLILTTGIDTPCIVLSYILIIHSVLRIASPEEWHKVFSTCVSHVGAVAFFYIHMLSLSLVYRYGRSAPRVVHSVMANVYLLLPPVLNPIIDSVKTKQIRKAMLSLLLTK
Method in brief: as §1

[19] = test system: T17, O51F2
T17 sequence (whole entry): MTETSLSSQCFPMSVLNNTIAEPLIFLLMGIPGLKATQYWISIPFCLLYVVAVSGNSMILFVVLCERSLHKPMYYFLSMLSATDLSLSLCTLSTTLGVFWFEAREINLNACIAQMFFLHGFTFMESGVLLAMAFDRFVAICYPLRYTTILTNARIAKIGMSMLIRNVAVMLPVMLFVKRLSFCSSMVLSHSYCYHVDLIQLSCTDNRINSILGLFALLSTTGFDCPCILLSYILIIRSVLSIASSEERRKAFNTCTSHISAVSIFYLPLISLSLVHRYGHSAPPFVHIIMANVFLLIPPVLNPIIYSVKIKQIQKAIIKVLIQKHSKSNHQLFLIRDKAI
Method in brief: as §1
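Note: active if original authors judged signal statistically different from baseline.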

| SMILES | odorant receptor agonist call [1] | odorant receptor agonist call [2] | odorant receptor agonist call [3] | odorant receptor agonist call [4] | odorant receptor agonist call [5] | odorant receptor agonist call [6] | odorant receptor agonist call [7] | odorant receptor agonist call [8] | odorant receptor agonist call [9] | odorant receptor agonist call [10] | odorant receptor agonist call [11] | odorant receptor agonist call [12] | odorant receptor agonist call [13] | odorant receptor agonist call [14] | odorant receptor agonist call [15] | odorant receptor agonist call [16] | odorant receptor agonist call [17] | odorant receptor agonist call [18] | odorant receptor agonist call [19] |
| --- | --- | --- | --- | --- | --- | --- | --- | --- | --- | --- | --- | --- | --- | --- | --- | --- | --- | --- | --- |
| COc1ccccc1O | inactive | inactive | inactive | inactive | inactive | inactive | inactive | inactive | inactive | inactive | inactive | inactive | inactive | inactive | inactive | inactive | inactive | inactive | inactive |
| CC1=CCC(C(C)(C)O)CC1 (stereo unspecified) | inactive | inactive | inactive | inactive | inactive | inactive | inactive | inactive | inactive | inactive | inactive | inactive | inactive | inactive | inactive | active | inactive | inactive | inactive |
| CCCCCCCOC(C)=O | inactive | inactive | inactive | inactive | inactive | inactive | inactive | inactive | inactive | inactive | inactive | inactive | inactive | inactive | inactive | inactive | inactive | inactive | inactive |
| CCCC(=O)O | inactive | inactive | inactive | inactive | inactive | inactive | inactive | inactive | inactive | inactive | inactive | inactive | inactive | active | inactive | inactive | inactive | inactive | inactive |
